Assay results taken from the supplement of paper PMC10849652.
The list shows a part of the results.

Amino acid sequences for entries named in this document (tags omitted). A change or cut given only in a name is not applied to a line headed by its entry.
UniProt P17480: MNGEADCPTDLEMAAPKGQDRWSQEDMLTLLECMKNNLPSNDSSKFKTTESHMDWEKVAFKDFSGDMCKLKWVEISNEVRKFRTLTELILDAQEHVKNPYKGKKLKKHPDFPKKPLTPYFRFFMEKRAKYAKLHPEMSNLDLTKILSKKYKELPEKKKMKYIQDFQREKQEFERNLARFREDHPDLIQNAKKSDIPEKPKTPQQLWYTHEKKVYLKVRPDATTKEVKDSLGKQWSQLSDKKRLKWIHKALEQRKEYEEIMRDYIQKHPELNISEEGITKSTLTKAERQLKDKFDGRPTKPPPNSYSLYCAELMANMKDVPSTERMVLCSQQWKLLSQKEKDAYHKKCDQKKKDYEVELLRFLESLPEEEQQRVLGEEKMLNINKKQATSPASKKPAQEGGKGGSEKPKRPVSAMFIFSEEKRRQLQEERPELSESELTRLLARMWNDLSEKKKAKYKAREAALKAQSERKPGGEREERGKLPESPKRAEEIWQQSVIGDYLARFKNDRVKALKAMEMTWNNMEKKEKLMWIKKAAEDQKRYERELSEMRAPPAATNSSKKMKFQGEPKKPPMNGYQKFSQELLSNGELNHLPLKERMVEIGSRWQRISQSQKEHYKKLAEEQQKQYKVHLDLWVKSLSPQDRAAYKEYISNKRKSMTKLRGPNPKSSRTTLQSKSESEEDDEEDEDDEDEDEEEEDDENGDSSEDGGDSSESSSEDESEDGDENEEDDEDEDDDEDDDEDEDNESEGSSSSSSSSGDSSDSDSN
UniProt Q9NZI7: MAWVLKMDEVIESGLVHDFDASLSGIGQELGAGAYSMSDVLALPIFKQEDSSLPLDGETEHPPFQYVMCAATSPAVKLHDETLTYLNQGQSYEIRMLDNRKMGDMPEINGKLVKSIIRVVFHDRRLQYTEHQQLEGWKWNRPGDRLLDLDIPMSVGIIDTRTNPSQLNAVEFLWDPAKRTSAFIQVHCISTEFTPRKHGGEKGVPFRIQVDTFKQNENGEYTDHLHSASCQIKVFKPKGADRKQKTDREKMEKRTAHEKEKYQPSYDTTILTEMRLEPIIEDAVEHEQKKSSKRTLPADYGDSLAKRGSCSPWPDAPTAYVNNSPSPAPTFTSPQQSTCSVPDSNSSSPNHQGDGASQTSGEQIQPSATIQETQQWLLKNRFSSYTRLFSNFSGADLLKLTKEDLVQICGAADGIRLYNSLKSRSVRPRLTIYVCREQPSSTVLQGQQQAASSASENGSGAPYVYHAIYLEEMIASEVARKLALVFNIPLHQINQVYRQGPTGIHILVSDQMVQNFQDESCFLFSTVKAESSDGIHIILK
UniProt Q8NBS9: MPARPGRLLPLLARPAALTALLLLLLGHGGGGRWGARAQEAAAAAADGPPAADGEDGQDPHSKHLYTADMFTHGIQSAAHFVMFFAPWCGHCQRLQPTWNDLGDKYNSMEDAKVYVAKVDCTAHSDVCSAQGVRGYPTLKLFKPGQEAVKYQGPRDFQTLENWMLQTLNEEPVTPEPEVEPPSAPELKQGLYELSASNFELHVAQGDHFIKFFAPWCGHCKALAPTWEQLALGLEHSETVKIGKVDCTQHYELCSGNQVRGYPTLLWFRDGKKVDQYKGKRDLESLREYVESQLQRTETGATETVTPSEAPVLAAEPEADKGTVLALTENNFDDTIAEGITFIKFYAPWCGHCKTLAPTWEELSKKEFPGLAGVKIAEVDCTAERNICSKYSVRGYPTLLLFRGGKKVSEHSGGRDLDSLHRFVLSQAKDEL
UniProt P49459, whole entry, looked up: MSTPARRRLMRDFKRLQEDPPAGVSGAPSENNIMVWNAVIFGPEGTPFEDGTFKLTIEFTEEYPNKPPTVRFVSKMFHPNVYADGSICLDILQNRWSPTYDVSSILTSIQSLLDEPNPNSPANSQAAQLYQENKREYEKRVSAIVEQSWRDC
UniProt Q9UJT1: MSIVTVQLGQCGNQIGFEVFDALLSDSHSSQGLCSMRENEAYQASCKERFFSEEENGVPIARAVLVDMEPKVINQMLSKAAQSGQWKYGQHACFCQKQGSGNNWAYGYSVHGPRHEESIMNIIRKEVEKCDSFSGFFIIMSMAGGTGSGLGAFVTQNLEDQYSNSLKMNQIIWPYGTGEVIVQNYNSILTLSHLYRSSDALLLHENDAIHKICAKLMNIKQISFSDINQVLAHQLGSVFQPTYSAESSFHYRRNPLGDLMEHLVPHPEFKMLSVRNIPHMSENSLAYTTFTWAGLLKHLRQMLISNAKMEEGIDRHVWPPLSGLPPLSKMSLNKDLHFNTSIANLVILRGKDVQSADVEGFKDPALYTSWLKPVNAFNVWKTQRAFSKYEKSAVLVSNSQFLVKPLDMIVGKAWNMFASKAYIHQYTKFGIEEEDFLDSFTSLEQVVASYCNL
UniProt O95071: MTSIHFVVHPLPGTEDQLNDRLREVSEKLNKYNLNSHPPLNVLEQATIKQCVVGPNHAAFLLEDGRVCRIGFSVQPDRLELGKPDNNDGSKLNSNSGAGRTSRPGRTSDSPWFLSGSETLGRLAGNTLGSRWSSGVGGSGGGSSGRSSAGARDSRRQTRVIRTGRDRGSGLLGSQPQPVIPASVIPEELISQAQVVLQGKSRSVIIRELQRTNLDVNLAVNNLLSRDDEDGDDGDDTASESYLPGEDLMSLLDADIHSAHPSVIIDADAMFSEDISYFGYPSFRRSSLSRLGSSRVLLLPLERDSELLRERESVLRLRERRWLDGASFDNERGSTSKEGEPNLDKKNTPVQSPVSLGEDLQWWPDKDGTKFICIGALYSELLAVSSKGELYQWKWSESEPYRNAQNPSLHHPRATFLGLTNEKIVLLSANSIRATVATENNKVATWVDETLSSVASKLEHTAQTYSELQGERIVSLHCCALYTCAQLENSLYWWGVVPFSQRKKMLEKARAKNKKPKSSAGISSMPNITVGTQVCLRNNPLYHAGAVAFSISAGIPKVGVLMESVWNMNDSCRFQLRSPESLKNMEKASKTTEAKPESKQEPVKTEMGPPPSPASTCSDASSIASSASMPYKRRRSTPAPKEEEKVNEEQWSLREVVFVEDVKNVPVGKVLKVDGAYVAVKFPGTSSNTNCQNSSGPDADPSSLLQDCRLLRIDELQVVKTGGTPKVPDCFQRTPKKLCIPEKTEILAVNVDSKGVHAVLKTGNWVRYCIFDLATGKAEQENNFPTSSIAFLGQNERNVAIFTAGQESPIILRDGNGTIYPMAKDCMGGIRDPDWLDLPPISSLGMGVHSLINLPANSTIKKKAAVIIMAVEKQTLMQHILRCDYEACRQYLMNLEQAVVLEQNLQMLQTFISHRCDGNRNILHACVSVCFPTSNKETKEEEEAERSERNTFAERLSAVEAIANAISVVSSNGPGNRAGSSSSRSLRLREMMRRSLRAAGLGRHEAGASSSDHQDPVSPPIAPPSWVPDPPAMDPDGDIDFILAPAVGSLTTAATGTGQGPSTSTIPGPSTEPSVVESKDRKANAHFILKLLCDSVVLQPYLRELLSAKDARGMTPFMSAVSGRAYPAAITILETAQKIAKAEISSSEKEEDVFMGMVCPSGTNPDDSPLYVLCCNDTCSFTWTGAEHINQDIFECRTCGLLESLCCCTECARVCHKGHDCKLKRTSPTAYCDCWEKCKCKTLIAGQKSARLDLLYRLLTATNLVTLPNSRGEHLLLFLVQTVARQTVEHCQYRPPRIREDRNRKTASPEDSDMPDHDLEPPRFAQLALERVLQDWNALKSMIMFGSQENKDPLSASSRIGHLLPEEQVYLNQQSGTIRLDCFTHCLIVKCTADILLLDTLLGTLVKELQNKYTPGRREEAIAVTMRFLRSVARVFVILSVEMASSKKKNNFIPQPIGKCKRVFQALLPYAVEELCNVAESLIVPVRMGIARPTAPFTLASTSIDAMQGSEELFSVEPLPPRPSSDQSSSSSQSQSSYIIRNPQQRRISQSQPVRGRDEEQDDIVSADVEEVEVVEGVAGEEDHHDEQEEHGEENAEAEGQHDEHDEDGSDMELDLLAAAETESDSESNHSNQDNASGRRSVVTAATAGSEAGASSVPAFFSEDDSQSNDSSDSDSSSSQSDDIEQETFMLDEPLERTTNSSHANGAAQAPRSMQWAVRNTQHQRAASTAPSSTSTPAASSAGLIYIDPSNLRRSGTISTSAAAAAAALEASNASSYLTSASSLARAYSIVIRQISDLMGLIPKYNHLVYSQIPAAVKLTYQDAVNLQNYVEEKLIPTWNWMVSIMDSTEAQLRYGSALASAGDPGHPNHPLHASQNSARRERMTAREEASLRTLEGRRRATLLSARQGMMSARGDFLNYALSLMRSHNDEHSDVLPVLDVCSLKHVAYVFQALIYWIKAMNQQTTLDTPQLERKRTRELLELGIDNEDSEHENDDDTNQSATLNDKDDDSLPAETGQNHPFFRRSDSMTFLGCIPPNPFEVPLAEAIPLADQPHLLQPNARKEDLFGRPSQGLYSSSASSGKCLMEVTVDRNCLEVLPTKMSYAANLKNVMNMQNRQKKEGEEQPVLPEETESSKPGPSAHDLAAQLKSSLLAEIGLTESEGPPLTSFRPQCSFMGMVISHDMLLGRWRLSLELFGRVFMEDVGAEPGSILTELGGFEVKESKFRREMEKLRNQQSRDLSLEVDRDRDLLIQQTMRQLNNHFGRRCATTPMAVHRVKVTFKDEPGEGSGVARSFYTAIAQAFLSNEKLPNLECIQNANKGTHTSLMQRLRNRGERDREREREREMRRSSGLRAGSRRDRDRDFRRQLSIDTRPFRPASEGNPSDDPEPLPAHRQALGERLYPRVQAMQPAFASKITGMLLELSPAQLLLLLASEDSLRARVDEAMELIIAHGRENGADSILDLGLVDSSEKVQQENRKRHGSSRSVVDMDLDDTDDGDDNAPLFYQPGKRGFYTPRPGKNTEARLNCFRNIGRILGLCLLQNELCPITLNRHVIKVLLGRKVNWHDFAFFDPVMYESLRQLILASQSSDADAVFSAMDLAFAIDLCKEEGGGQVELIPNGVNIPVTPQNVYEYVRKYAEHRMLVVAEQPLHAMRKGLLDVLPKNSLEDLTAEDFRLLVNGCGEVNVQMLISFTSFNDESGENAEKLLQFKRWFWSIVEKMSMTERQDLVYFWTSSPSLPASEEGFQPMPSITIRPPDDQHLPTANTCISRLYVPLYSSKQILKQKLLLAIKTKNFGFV
UniProt Q15819: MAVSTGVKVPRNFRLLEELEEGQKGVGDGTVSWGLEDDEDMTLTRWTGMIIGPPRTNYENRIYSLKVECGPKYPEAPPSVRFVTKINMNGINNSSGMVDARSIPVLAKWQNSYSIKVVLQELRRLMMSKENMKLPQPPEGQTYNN
UniProt O95155, whole entry, looked up: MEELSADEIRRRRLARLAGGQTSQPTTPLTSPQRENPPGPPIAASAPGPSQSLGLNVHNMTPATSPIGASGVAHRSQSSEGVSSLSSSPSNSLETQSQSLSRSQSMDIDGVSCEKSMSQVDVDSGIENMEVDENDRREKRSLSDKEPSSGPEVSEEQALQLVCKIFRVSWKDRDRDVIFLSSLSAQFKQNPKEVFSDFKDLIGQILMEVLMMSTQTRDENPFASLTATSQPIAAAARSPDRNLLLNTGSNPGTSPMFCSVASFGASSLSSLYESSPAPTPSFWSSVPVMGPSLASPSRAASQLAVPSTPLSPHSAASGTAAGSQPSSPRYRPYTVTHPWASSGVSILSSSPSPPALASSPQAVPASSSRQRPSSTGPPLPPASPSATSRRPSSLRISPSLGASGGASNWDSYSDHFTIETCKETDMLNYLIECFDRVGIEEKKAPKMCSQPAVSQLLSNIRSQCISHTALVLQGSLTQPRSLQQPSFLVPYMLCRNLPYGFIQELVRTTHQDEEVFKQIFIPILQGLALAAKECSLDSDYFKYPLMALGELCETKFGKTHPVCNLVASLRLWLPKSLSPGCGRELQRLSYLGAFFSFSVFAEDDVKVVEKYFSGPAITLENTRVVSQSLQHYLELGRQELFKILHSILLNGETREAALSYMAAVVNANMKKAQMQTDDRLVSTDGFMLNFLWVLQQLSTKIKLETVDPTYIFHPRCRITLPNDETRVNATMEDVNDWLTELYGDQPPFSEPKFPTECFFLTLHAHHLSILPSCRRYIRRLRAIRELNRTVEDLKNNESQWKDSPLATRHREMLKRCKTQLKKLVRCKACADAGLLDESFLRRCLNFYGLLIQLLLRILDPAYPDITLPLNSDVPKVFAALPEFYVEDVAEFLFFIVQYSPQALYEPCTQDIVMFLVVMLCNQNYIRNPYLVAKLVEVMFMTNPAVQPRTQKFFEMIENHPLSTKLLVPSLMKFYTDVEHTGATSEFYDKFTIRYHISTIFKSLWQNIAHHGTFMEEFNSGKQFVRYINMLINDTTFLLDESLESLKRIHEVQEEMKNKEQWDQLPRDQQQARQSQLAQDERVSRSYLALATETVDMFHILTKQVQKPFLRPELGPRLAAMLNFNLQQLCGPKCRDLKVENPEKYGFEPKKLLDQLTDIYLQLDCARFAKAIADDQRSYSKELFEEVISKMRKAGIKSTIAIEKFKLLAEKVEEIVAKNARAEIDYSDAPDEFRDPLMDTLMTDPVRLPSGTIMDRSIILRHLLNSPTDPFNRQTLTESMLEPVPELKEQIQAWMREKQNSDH

Columns and labels:
Experiment in all cases: log2 fold change, soluble protein after heating vs DMSO (PISA); higher = thermal stabilisation; K562 lysate, 10 uM; active = over 0.2 and 3.5 SD of the protein, either way, in both replicates (recomputed)
alvocidib = compound: CN1CC[C@H](c2c(O)cc(O)c3c(=O)cc(-c4ccccc4Cl)oc23)[C@H](O)C1 [alvocidib]
Summary of the method: (§1)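 Soluble protein was defined as the supernatant remaining after 21,000xg for 90 min, following pooling of heated aliquots and adjustment to 0.5% NP-40 at 4°C. Before that, crude K562 extract at 1 mg/mL protein in PBS pH 7.4 with 1 mM MgCl2 was treated with 10 μM compound for 30 min and heated for 3 min across 48°C-58°C. Quantification used TMTpro 16plex LC-MS/MS with channel sums equalised, and values are log-two fold changes in thermal stability relative to solvent controls from duplicates.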

Tubastatin A = compound: CN1CCc2c(c3ccccc3n2Cc2ccc(C(=O)NO)cc2)C1 [Tubastatin A]
Summary of the method: as §1

[1] = compound: CNC(=O)C1=CC=CC=C1NC2=NC(=NC=C2Cl)NC3=C(C=C(C=C3)N4CCOCC4)OC
Summary of the method: as §1

defactinib = compound: CNC(=O)c1ccc(Nc2ncc(C(F)(F)F)c(NCc3nccnc3N(C)S(C)(=O)=O)n2)cc1 [defactinib]
Summary of the method: as §1

[2] = compound: CNc1nc(-c2ccc3c(N)n[nH]c3c2)cc(N2C[C@@H](C(=O)NC3CCCCC3)CC[C@H]2C)n1
Summary of the method: as §1

encorafenib = compound: COC(=O)N[C@@H](C)CNc1nccc(-c2cn(C(C)C)nc2-c2cc(Cl)cc(NS(C)(=O)=O)c2F)n1 [encorafenib]
Summary of the method: as §1

[3] = compound: COC(=O)[C@H](CCSC)NC(=O)C1=C(C=C(C=C1)NC[C@H](CS)N)C2=CC=CC=C2
Summary of the method: as §1

alisertib = compound: COc1cc(Nc2ncc3c(n2)-c2ccc(Cl)cc2C(c2c(F)cccc2OC)=NC3)ccc1C(=O)O [alisertib]
Summary of the method: as §1

[4] = compound: COc1cc2nc(-c3cc(F)ccc3O)nc(N[C@@H]3CNC[C@H]3C(C)(C)O)c2cc1OC
Summary of the method: as §1

gefitinib = compound: COc1cc2ncnc(Nc3ccc(F)c(Cl)c3)c2cc1OCCCN1CCOCC1 [gefitinib]
Summary of the method: as §1

lapatinib = compound: CS(=O)(=O)CCNCc1ccc(-c2ccc3ncnc(Nc4ccc(OCc5cccc(F)c5)c(Cl)c4)c3c2)o1 [lapatinib]
Summary of the method: as §1

pictilisib = compound: CS(=O)(=O)N1CCN(Cc2cc3nc(-c4cccc5[nH]ncc45)nc(N4CCOCC4)c3s2)CC1 [pictilisib]
Summary of the method: as §1

crizotinib = compound: C[C@@H](Oc1cc(-c2cnn(C3CCNCC3)c2)cnc1N)c1c(Cl)ccc(F)c1Cl [crizotinib]
Summary of the method: as §1

[5] = compound: C[C@H](C1=CC=C(C=C1)C(=O)NC2=C3C=CNC3=NC=C2)N
Summary of the method: as §1

duvelisib = compound: C[C@H](Nc1ncnc2nc[nH]c12)c1cc2cccc(Cl)c2c(=O)n1-c1ccccc1 [duvelisib]
Summary of the method: as §1

gandotinib = compound: Cc1cc(Nc2cc(CN3CCOCC3)c3nc(C)c(Cc4ccc(Cl)cc4F)n3n2)n[nH]1 [gandotinib]
Summary of the method: as §1

tozasertib = compound: Cc1cc(Nc2cc(N3CCN(C)CC3)nc(Sc3ccc(NC(=O)C4CC4)cc3)n2)n[nH]1 [tozasertib]
Summary of the method: as §1

doramapimod = compound: Cc1ccc(-n2nc(C(C)(C)C)cc2NC(=O)Nc2ccc(OCCN3CCOCC3)c3ccccc23)cc1 [doramapimod]
Summary of the method: as §1

bafetinib = compound: Cc1ccc(NC(=O)c2ccc(CN3CC[C@H](N(C)C)C3)c(C(F)(F)F)c2)cc1Nc1nccc(-c2cncnc2)n1 [bafetinib]
Summary of the method: as §1

[6] = compound: Cc1cccc(CC(=O)N2CCc3c2ccc(-c2cn(C)c4ncnc(N)c24)c3F)n1
Summary of the method: as §1

Measured: log2 fold change

TUT4 (UniProt Q5TAX3)
inactive: alvocidib -0.022 | Tubastatin A -0.1 | [1] -0.001 | defactinib 0.002 | [2] 0.039 | encorafenib 0.059 | [3] 0.125 | alisertib 0.01 | [4] -0.014 | gefitinib -0.007 | lapatinib -0.003 | pictilisib -0.041 | crizotinib 0 | [5] -0.064 | duvelisib 0.006 | gandotinib -0.001 | tozasertib 0.047 | doramapimod -0.023 | bafetinib -0.039 | [6] 0.15

UBE2L6 (UniProt O14933)
inactive: alvocidib 0.034 | Tubastatin A -0.051 | [1] 0.082 | defactinib 0.065 | [2] -0.005 | encorafenib 0.06 | alisertib 0.004 | [4] -0.026 | gefitinib 0.092 | lapatinib 0.059 | pictilisib 0.062 | crizotinib -0.014 | [5] 0.088 | duvelisib 0.033 | gandotinib -0.105 | tozasertib 0.109 | doramapimod -0.013 | bafetinib -0.267 | [6] -0.024
active: [3] -0.36

UBTF (UniProt P17480)
inactive: alvocidib 0.026 | Tubastatin A -0.135 | [1] -0.008 | defactinib 0.007 | [2] 0.004 | encorafenib -0.002 | [3] 0.073 | alisertib 0.055 | [4] -0.018 | gefitinib 0.045 | lapatinib -0.013 | pictilisib -0.024 | crizotinib -0.037 | [5] 0.071 | duvelisib -0.015 | gandotinib -0.103 | tozasertib 0.004 | doramapimod -0.008 | bafetinib -0.039 | [6] -0.011

UBA6
inactive: alvocidib 0.003 | Tubastatin A -0.081 | [1] 0.015 | defactinib 0.024 | [2] -0.021 | encorafenib 0.003 | [3] 0.053 | alisertib 0.002 | [4] 0.01 | gefitinib -0.005 | lapatinib -0.011 | pictilisib -0.01 | crizotinib -0.023 | [5] 0.002 | duvelisib 0.011 | gandotinib -0.066 | tozasertib -0.013 | doramapimod -0.001 | bafetinib -0.003 | [6] -0.009

UBP1 (UniProt Q9NZI7)
inactive: alvocidib 0.049 | Tubastatin A -0.121 | [1] 0.058 | defactinib 0.077 | [2] 0.002 | encorafenib 0.115 | [3] 0.019 | alisertib 0.059 | [4] -0.011 | gefitinib -0.073 | lapatinib 0.049 | pictilisib -0.004 | crizotinib -0.202 | [5] 0.206 | duvelisib -0.025 | gandotinib -0.01 | tozasertib -0.043 | doramapimod 0.15 | bafetinib -0.029 | [6] -0.124

TXNDC5 (UniProt Q8NBS9)
inactive: alvocidib 0.029 | Tubastatin A 0.052 | [1] -0.003 | defactinib -0.035 | [2] 0.022 | encorafenib -0.035 | [3] -0.014 | alisertib -0.001 | [4] 0 | gefitinib -0.002 | lapatinib -0.02 | pictilisib 0 | crizotinib 0.026 | [5] 0.005 | duvelisib 0.016 | gandotinib 0.034 | tozasertib 0.012 | doramapimod -0.004 | bafetinib 0.055 | [6] -0.021

TUBA4A (UniProt P68366)
inactive: alvocidib 0.003 | Tubastatin A -0.068 | [1] 0.049 | defactinib 0.014 | [2] -0.001 | encorafenib -0.039 | [3] 0.125 | alisertib 0.027 | [4] 0.032 | gefitinib 0.007 | lapatinib -0.02 | pictilisib 0.012 | crizotinib -0.048 | [5] -0.066 | duvelisib 0.034 | gandotinib 0.121 | tozasertib 0.011 | doramapimod 0.045 | bafetinib -0.028 | [6] 0.035

UBE2A (UniProt P49459)
inactive: alvocidib 0.065 | Tubastatin A 0.056 | [1] 0.016 | defactinib 0.026 | [2] 0.027 | encorafenib -0.038 | [3] -0.015 | alisertib -0.024 | [4] 0.007 | gefitinib -0.065 | lapatinib -0.028 | pictilisib -0.038 | crizotinib -0.009 | [5] 0.126 | duvelisib 0.038 | gandotinib -0.09 | tozasertib 0.044 | doramapimod -0.037 | bafetinib 0.044 | [6] -0.149

TUBA1B (UniProt P68363)
inactive: alvocidib -0.027 | Tubastatin A -0.056 | [1] 0.019 | defactinib -0.03 | [2] 0.003 | encorafenib -0.004 | [3] 0.085 | alisertib 0.026 | [4] -0.004 | gefitinib 0.013 | lapatinib 0.004 | pictilisib 0.001 | crizotinib -0.039 | [5] -0.015 | duvelisib -0.011 | gandotinib 0.022 | tozasertib -0.011 | doramapimod 0.023 | bafetinib -0.025 | [6] 0.002

Looked up one by one from the list above (2):
TXNDC5 (UniProt Q8NBS9)
inactive: alvocidib 0.029 | Tubastatin A 0.052 | [1] -0.003 | defactinib -0.035 | [2] 0.022 | encorafenib -0.035 | [3] -0.014 | alisertib -0.001 | [4] 0 | gefitinib -0.002 | lapatinib -0.02 | pictilisib 0 | crizotinib 0.026 | [5] 0.005 | duvelisib 0.016 | gandotinib 0.034 | tozasertib 0.012 | doramapimod -0.004 | bafetinib 0.055 | [6] -0.021

TUBA4A (UniProt P68366)
inactive: alvocidib 0.003 | Tubastatin A -0.068 | [1] 0.049 | defactinib 0.014 | [2] -0.001 | encorafenib -0.039 | [3] 0.125 | alisertib 0.027 | [4] 0.032 | gefitinib 0.007 | lapatinib -0.02 | pictilisib 0.012 | crizotinib -0.048 | [5] -0.066 | duvelisib 0.034 | gandotinib 0.121 | tozasertib 0.011 | doramapimod 0.045 | bafetinib -0.028 | [6] 0.035

The results go on.

TXN (UniProt P10599)
inactive: alvocidib -0.005 | Tubastatin A 0.051 | [1] -0.034 | defactinib 0.034 | [2] -0.003 | encorafenib -0.024 | [3] -0.045 | alisertib 0.005 | [4] -0.001 | gefitinib 0.002 | lapatinib 0.024 | pictilisib 0.055 | crizotinib 0.042 | [5] 0.083 | duvelisib 0.024 | gandotinib -0.005 | tozasertib -0.009 | doramapimod -0.043 | bafetinib 0.14 | [6] -0.041

TUBD1 (UniProt Q9UJT1)
inactive: alvocidib -0.029 | Tubastatin A -0.051 | [1] 0.072 | defactinib -0.038 | [2] -0.056 | encorafenib 0.018 | [3] 0.062 | alisertib 0.011 | [4] -0.113 | gefitinib 0.069 | lapatinib 0.007 | pictilisib 0.051 | crizotinib 0.092 | [5] -0.015 | duvelisib 0.111 | gandotinib 0.032 | tozasertib -0.02 | doramapimod 0 | bafetinib 0.315 | [6] -0.031

UBR5 (UniProt O95071)
inactive: alvocidib -0.011 | Tubastatin A -0.084 | [1] 0.002 | defactinib 0.016 | [2] 0 | encorafenib 0.025 | [3] -0.044 | alisertib -0.028 | [4] -0.005 | gefitinib 0.014 | lapatinib -0.003 | pictilisib -0.009 | crizotinib -0.055 | [5] -0.01 | duvelisib -0.004 | gandotinib -0.018 | tozasertib 0.001 | doramapimod 0.012 | bafetinib -0.047 | [6] 0.046

TUBB4B (UniProt P68371)
inactive: alvocidib 0.032 | Tubastatin A -0.017 | [1] 0.024 | defactinib 0.018 | [2] -0.039 | encorafenib -0.03 | [3] 0.067 | alisertib 0.019 | [4] -0.013 | gefitinib -0.028 | lapatinib 0.027 | pictilisib 0.017 | crizotinib -0.027 | [5] 0.053 | duvelisib -0.029 | gandotinib 0.004 | tozasertib 0.011 | doramapimod -0.024 | bafetinib 0.027 | [6] -0.043

UBE2V2 (UniProt Q15819)
inactive: alvocidib 0.015 | Tubastatin A 0.061 | [1] 0.013 | defactinib 0.024 | [2] -0.016 | encorafenib -0.015 | [3] -0.029 | alisertib 0.017 | [4] -0.001 | gefitinib 0.037 | lapatinib 0.02 | pictilisib 0.02 | crizotinib 0.032 | [5] 0.006 | duvelisib -0.026 | gandotinib -0.006 | tozasertib 0.005 | doramapimod -0.003 | bafetinib -0.006 | [6] -0.016

TTPAL (UniProt Q9BTX7)
inactive: alvocidib -0.058 | Tubastatin A 0.05 | [1] -0.074 | defactinib 0.172 | [2] 0.013 | encorafenib -0.024 | [3] -0.096 | alisertib -0.092 | [4] 0.017 | gefitinib -0.032 | lapatinib 0.024 | pictilisib -0.068 | crizotinib 0.012 | [5] -0.203 | duvelisib 0.107 | gandotinib 0.051 | tozasertib -0.02 | doramapimod -0.029 | bafetinib -0.141 | [6] 0.063

UBE4B isoform 4 (UniProt O95155)
inactive: alvocidib 0.004 | Tubastatin A -0.006 | [1] 0.003 | defactinib 0.017 | [2] -0.035 | encorafenib 0.028 | [3] -0.037 | alisertib -0.011 | [4] -0.001 | gefitinib 0 | lapatinib -0.019 | pictilisib -0.009 | crizotinib -0.023 | [5] -0.029 | duvelisib 0.012 | gandotinib 0.003 | tozasertib 0.014 | doramapimod 0.001 | bafetinib -0.029 | [6] 0.009
